{"source": "the supplement of paper PMC4635364", "note": "Where a name gives a salt, the structure may show the parent alone. This is one part of the list. Single values are uncertain here, since repeats match poorly.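 ReNCell VM, a human fetal ventral-midbrain neural progenitor line, was differentiated without mitogens. Blinded raters scored images stained for doublecortin (early neurons) or tyrosine hydroxylase (dopaminergic neurons) against untreated wells (0 = no change). Scores were averaged across repeats and both raters, and compounds averaging 2 or more were selected as hits for retesting.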", "data": [{"tested_on": "ReNCell VM", "assay": "neuronal differentiation score (DCX+ cell fraction vs untreated, manual image score) (score (-3 to 3)); higher = more neuronal differentiation", "conditions": "library: Prestwick; 2 uM; 2 weeks", "values": [{"smiles": "CO/N=C(\\C(=O)N[C@@H]1C(=O)N2C(C(=O)O)=C(COC(C)=O)CS[C@H]12)c1csc(N)n1", "note": "[Cefotaxime sodium salt]", "neuronal differentiation score": "inactive: 1"}, {"smiles": "CCn1cc(C(=O)O)c(=O)c2cc(F)c(N3CCN(C)CC3)cc21", "note": "[Pefloxacine]", "neuronal differentiation score": "inactive: 0"}, {"smiles": "O=C(NCC(O)CO)c1c(I)c(C(=O)NCC(O)CO)c(I)c(N(CCO)C(=O)CO)c1I", "note": "(centres undefined) [Ioversol]", "neuronal differentiation score": "inactive: 0"}, {"smiles": "CC1(C)S[C@@H]2[C@H](NC(=O)Cc3ccccc3)C(=O)N2[C@H]1C(=O)O", "note": "[Benzylpenicillin sodium]", "neuronal differentiation score": "inactive: 0"}, {"smiles": "CCOC1O[C@H]([C@@H](COCc2ccccc2)OCc2ccccc2)[C@H](OCc2ccccc2)[C@H]1O", "note": "(some centres undefined) [Tribenoside]", "neuronal differentiation score": "inactive: 0"}, {"smiles": "Cc1cc(/C=C/c2ccc3cc(N(C)C)ccc3[n+]2C)c(C)n1-c1ccccc1", "note": "[Pyrvinium pamoate]", "neuronal differentiation score": "inactive: 0"}, {"smiles": "CCN(CC)C(=O)/C(C#N)=C/c1cc(O)c(O)c([N+](=O)[O-])c1", "note": "[Entacapone]", "neuronal differentiation score": "inactive: 0"}, {"smiles": "CN1CCN2c3ccccc3Cc3ccccc3C2C1", "note": "(centres undefined) [Mianserine hydrochloride]", "neuronal differentiation score": "inactive: 0"}]}, {"tested_on": "ReNCell VM", "assay": "neuronal differentiation score (DCX+ cell fraction vs untreated, manual image score) (score (-3 to 3)); higher = more neuronal differentiation", "conditions": "library: Spectrum; 2 uM; 2 weeks", "values": [{"smiles": "CC(=O)OC/C=C(C)/C=C/C=C(C)/C=C/C1=C(C)CCCC1(C)C", "neuronal differentiation score": "inactive: 0"}, {"smiles": "OCCN(CCO)c1nc(N2CCCCC2)c2nc(N(CCO)CCO)nc(N3CCCCC3)c2n1", "neuronal differentiation score": "inactive: 0"}, {"smiles": "CN(C/C=C/C#CC(C)(C)C)Cc1cccc2ccccc12", "neuronal differentiation score": "inactive: 0"}, {"smiles": "COc1ccc2c(c1)c(CC(=O)OCC(=O)O)c(C)n2C(=O)c1ccc(Cl)cc1", "neuronal differentiation score": "inactive: 0"}, {"smiles": "CC(=O)c1ccc2c(c1)N(CCCN1CCN(CCO)CC1)c1ccccc1S2", "neuronal differentiation score": "inactive: 0"}, {"smiles": "O=C(O)CCC(=O)OC[C@@H](NC(=O)C(Cl)Cl)[C@H](O)c1ccc([N+](=O)[O-])cc1", "neuronal differentiation score": "inactive: 0"}, {"smiles": "NC1(C(=O)O)CC1", "neuronal differentiation score": "inactive: 0"}, {"smiles": "Cc1cccc(C)c1OCC(C)N", "note": "(centres undefined)", "neuronal differentiation score": "inactive: 0"}, {"smiles": "CC(=O)Nc1ccc(S(=O)(=O)c2ccc(NC(C)=O)cc2)cc1", "neuronal differentiation score": "inactive: 0"}, {"smiles": "CC1(C)C=Cc2c(c3c(c4c(=O)c(-c5ccc(O)cc5)coc24)OC(C)(C)CC3)O1", "neuronal differentiation score": "inactive: 0"}, {"smiles": "C=CC1=C(C)c2cc3[nH]c(cc4nc(cc5[nH]c(cc1n2)c(C)c5CCC(=O)O)C(CCC(=O)O)=C4C)c(C)c3C=C", "neuronal differentiation score": "inactive: 0"}, {"smiles": "CCN(CC)CCNC(=O)c1cc(S(C)(=O)=O)ccc1OC", "neuronal differentiation score": "inactive: 0"}, {"smiles": "c1ccc(-c2ccc(C(c3ccccc3)n3ccnc3)cc2)cc1", "note": "(centres undefined)", "neuronal differentiation score": "inactive: 0"}, {"smiles": "COc1ccc(-c2cc(=O)c3c(OC)c(OC)c(OC)cc3o2)cc1OC", "neuronal differentiation score": "inactive: 0"}, {"smiles": "CC[N+](C)(CC)CCOC(=O)C(O)(c1ccccc1)C1CCCCC1", "note": "(centres undefined)", "neuronal differentiation score": "inactive: 0"}, {"smiles": "CC(=O)N[C@@H](CCC(N)=O)C(=O)O", "neuronal differentiation score": "inactive: 0"}, {"smiles": "N#Cc1ccc2[nH]cc(CCCCN3CCN(c4ccc5oc(C(N)=O)cc5c4)CC3)c2c1", "neuronal differentiation score": "inactive: 0"}, {"smiles": "CNC(=O)c1c(I)c(NC(C)=O)c(I)c(C(=O)O)c1I", "neuronal differentiation score": "inactive: 0"}, {"smiles": "CC(C)CCC[C@@H](C)[C@H]1CC[C@H]2[C@@H]3CC=C4C[C@@H](O)CC[C@]4(C)[C@H]3CC[C@]12C", "neuronal differentiation score": "inactive: 0"}, {"smiles": "C[C@@H]1O[C@@H]1P(=O)(O)O", "neuronal differentiation score": "inactive: 0"}, {"smiles": "CN(C)[C@@H]1C(O)=C(C(N)=O)C(=O)[C@@]2(O)C(O)=C3C(=O)c4c(O)ccc(Cl)c4[C@@](C)(O)[C@H]3C[C@@H]12", "neuronal differentiation score": "inactive: 0"}, {"smiles": "CC(N)C12CC3CC(CC(C3)C1)C2", "note": "(centres undefined)", "neuronal differentiation score": "inactive: 0"}]}, {"tested_on": "ReNCell VM", "assay": "neuronal differentiation score (DCX+ cell fraction vs untreated, manual image score) (score (-3 to 3)); higher = more neuronal differentiation", "conditions": "library: Tocriscreen; 2 uM; 2 weeks", "values": [{"smiles": "O=C(O)Cc1cccc(OCCCN(Cc2cccc(C(F)(F)F)c2Cl)CC(c2ccccc2)c2ccccc2)c1", "note": "[GW 3965 hydrochloride]", "neuronal differentiation score": "inactive: 0"}, {"smiles": "Cc1c(C(=O)NN2CCOCC2)nn(-c2ccc(Cl)cc2Cl)c1-c1ccc(I)cc1", "neuronal differentiation score": "inactive: 0"}, {"smiles": "COCCNC(=O)COc1ccc(OCCNC[C@H](O)COc2ccccc2)cc1", "note": "[ZD 7114 hydrochloride]", "neuronal differentiation score": "inactive: 0"}, {"smiles": "N[C@H](C(=O)O)c1cc(O)cc(O)c1", "neuronal differentiation score": "inactive: 0"}, {"smiles": "CC(C)Oc1ccc2c(=O)c3cc(C(=O)O)ccc3oc2c1", "neuronal differentiation score": "inactive: 0"}, {"smiles": "CN1CCC[C@@H]1Cc1c[nH]c2ccc(CCS(=O)(=O)c3ccccc3)cc12", "note": "[Eletriptan hydrobromide]", "neuronal differentiation score": "inactive: 0"}]}, {"tested_on": "ReNCell VM", "assay": "dopaminergic neuron differentiation score (TH+ cell fraction vs untreated, manual image score) (score (0 to 3)); higher = more TH+ dopaminergic neuron differentiation", "conditions": "library: Prestwick; 2 uM; 4 weeks; BDNF 10 ng/ml + GDNF 10 ng/ml", "values": [{"smiles": "CO/N=C(\\C(=O)N[C@@H]1C(=O)N2C(C(=O)O)=C(COC(C)=O)CS[C@H]12)c1csc(N)n1", "note": "[Cefotaxime sodium salt]", "dopaminergic neuron differentiation score": "active: 2"}, {"smiles": "CCn1cc(C(=O)O)c(=O)c2cc(F)c(N3CCN(C)CC3)cc21", "note": "[Pefloxacine]", "dopaminergic neuron differentiation score": "inactive: 0"}, {"smiles": "O=C(NCC(O)CO)c1c(I)c(C(=O)NCC(O)CO)c(I)c(N(CCO)C(=O)CO)c1I", "note": "(centres undefined) [Ioversol]", "dopaminergic neuron differentiation score": "inactive: 0"}, {"smiles": "CC1(C)S[C@@H]2[C@H](NC(=O)Cc3ccccc3)C(=O)N2[C@H]1C(=O)O", "note": "[Benzylpenicillin sodium]", "dopaminergic neuron differentiation score": "inactive: 0"}, {"smiles": "CCOC1O[C@H]([C@@H](COCc2ccccc2)OCc2ccccc2)[C@H](OCc2ccccc2)[C@H]1O", "note": "(some centres undefined) [Tribenoside]", "dopaminergic neuron differentiation score": "inactive: 0"}, {"smiles": "Cc1cc(/C=C/c2ccc3cc(N(C)C)ccc3[n+]2C)c(C)n1-c1ccccc1", "note": "[Pyrvinium pamoate]", "dopaminergic neuron differentiation score": "inactive: 0"}, {"smiles": "CCN(CC)C(=O)/C(C#N)=C/c1cc(O)c(O)c([N+](=O)[O-])c1", "note": "[Entacapone]", "dopaminergic neuron differentiation score": "inactive: 0"}, {"smiles": "CN1CCN2c3ccccc3Cc3ccccc3C2C1", "note": "(centres undefined) [Mianserine hydrochloride]", "dopaminergic neuron differentiation score": "inactive: 0"}]}]}
